Record: PubChem BioAssay AID504764 (Drosophila RNAi Screening Center, 2011)
In all, the deposit lists about 22,000 reagents; below is a random part of those with a known target gene and a result. In the full data, 403 (1.9%) are marked active. 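Unnormalised raw counts per well; ratio z-scores behind the hit calls and whether each hit raises or lowers signal are not deposited.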 Not given: the amount of reagent.

Purpose: 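Genes whose knock-down alters Notch-dependent transcription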 (primary screen)
System: Drosophila Kc167 cells
Reagents: long dsRNA against Drosophila genes
Duration: about 5 days (4 days dsRNA, then 24 h after transfection)
Treatment: transfection of constitutively active membrane-tethered Notch lacking the extracellular domain, read 24 h later
Measurement: 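Firefly luciferase from an E(spl)m3 reporter with active Notch, plus control-promoter and uninduced reporter wells for normalisation; unnormalised counts, duplicate wells a and b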
Direction: induced reporter light, run 1, well a and induced reporter light, run 1, well b: higher = more light from the Notch target reporter with active Notch; control promoter light, run 1, well a and control promoter light, run 1, well b: higher = more light from the viral control promoter (cell number, transfection, viability); uninduced reporter light, run 1, well a: higher = more light from the Notch target reporter without active Notch
Rule for the call: 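Wells with low control signal or poorly matching duplicates excluded; duplicates averaged; per source plate, z beyond ±2 for induced/control log2 ratio or beyond ±1.8 for induced/uninduced marks a hit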
Calls: active = modifier hit (raised or lowered Notch signal); inactive = not a hit

| induced reporter light, run 1, well a | induced reporter light, run 1, well b | control promoter light, run 1, well a | control promoter light, run 1, well b | uninduced reporter light, run 1, well a | call | target gene | DRSC id |
| --- | --- | --- | --- | --- | --- | --- | --- |
| 2.23e5 | 2.68e5 | 2.24e5 | 2.64e5 | 20220 | inactive | CG6912 (GeneID 41820) | DRSC16132 |
| 1.06e5 | 1.23e5 | 1.37e5 | 1.01e5 | 7785 | inactive | Dtwd2 (GeneID 40873) | DRSC12501 |
| 97245 | 1.08e5 | 64295 | 55640 | 6565 | inactive | wtrw (GeneID 40931) | DRSC14241 |
| 97220 | 86015 | 1.29e5 | 98225 | 7155 | inactive | wtrw (GeneID 40931) | DRSC15278 |
| 97130 | 1.15e5 | 64170 | 85830 | 15745 | inactive | Bcs1 (GeneID 34360) | DRSC02789 |
| 1.55e5 | 1.74e5 | 2.70e5 | 3.01e5 | 15715 | inactive | Jasper (GeneID 43576) | DRSC16352 |
| 1.03e5 | 1.17e5 | 1.07e5 | 1.18e5 | 5005 | inactive | CstF50 (GeneID 43734) | DRSC15434 |
| 1.49e5 | 1.33e5 | 1.27e5 | 57015 | 16115 | inactive | CG10576 (GeneID 38645) | DRSC09745 |
| 1.16e5 | 1.38e5 | 1.78e5 | 1.48e5 | 11360 | inactive | CG8323 (GeneID 36566) | DRSC07149 |
| 1.24e5 | 1.16e5 | 58150 | 13940 | 9810 | active | LanA (GeneID 38723) | DRSC11207 |
| 53115 | 56115 | 67575 | 60005 | 6950 | inactive | Arpc3B (GeneID 32696) | DRSC20126 |
| 1.05e5 | 1.17e5 | 2.42e5 | 2.43e5 | 8865 | inactive | CG15741 (GeneID 32137) | DRSC19707 |
| 1.31e5 | 1.18e5 | 86380 | 76910 | 12310 | inactive | fun (retired record) (GeneID 5657936) | DRSC12300 |
| 1.64e5 | 2.02e5 | 2.41e5 | 2.33e5 | 12315 | inactive | Etfb (GeneID 43515) | DRSC16324 |
| 1.14e5 | 1.25e5 | 1.77e5 | 1.53e5 | 6070 | inactive | CG14107 (GeneID 39498) | DRSC10110 |
| 1.46e5 | 1.48e5 | 1.71e5 | 1.72e5 | 11005 | inactive | SPH93 (GeneID 35049) | DRSC02978 |
| 1.73e5 | 1.57e5 | 2.03e5 | 1.85e5 | 12920 | inactive | mRpL42 (GeneID 36050) | DRSC06235 |
| 2.53e5 | 2.90e5 | 2.38e5 | 2.66e5 | 19115 | inactive | D12 (GeneID 34172) | DRSC03311 |
| 1.77e5 | 1.70e5 | 1.35e5 | 1.55e5 | 10150 | inactive | CG6686 (GeneID 34608) | DRSC02979 |
| 1.26e5 | 1.37e5 | 1.47e5 | 1.22e5 | 11225 | inactive | CG9067 (GeneID 36197) | DRSC07328 |
| 91300 | 1.01e5 | 1.77e5 | 1.47e5 | 10682 | inactive | Rsod (GeneID 43586) | DRSC15424 |
| 2.51e5 | 2.13e5 | 2.65e5 | 2.01e5 | 12755 | inactive | Psf2 (GeneID 33641) | DRSC00516 |
| 1.78e5 | 2.17e5 | 2.63e5 | 1.94e5 | 9978 | inactive | CG13707 (GeneID 38583) | DRSC08316 |
| 1.73e5 | 1.81e5 | 2.54e5 | 2.16e5 | 9725 | inactive | CG15876 (GeneID 38573) | DRSC08484 |
| 1.48e5 | 1.46e5 | 1.37e5 | 1.57e5 | 11840 | inactive | CG8635 (GeneID 35850) | DRSC07226 |
| 27340 | 31760 | 32905 | 32240 | 1865 | inactive | RpS28b (GeneID 31897) | DRSC18258 |
| 1.02e5 | 1.01e5 | 60900 | 66110 | 7525 | inactive | Max (GeneID 40095) | DRSC11218 |
| 1.33e5 | 1.13e5 | 1.29e5 | 64895 | 9088 | inactive | CG7772 (GeneID 32776) | DRSC20056 |
| 94685 | 1.41e5 | 87590 | 1.09e5 | 19500 | inactive | LManIII (GeneID 34203) | DRSC03221 |
| 36950 | 31925 | 39595 | 49660 | 1840 | inactive | CG13032 (GeneID 39863) | DRSC09912 |
| 59470 | 62035 | 71545 | 63215 | 4435 | inactive | HP1b (GeneID 31834) | DRSC18418 |
| 3.20e5 | 3.17e5 | 2.94e5 | 3.24e5 | 24705 | inactive | Glut3 (GeneID 42036) | DRSC16681 |
| 1.52e5 | 1.59e5 | 2.13e5 | 1.74e5 | 10635 | inactive | CG11034 (GeneID 33810) | DRSC02121 |
| 1.37e5 | 1.27e5 | 1.61e5 | 1.66e5 | 9365 | inactive | CG11034 (GeneID 33810) | DRSC02122 |
| 2.01e5 | 1.69e5 | 2.55e5 | 2.62e5 | 11120 | inactive | CG12773 (GeneID 31082) | DRSC18580 |
| 2.03e5 | 2.31e5 | 1.74e5 | 2.05e5 | 19900 | inactive | CG5355 (GeneID 34421) | DRSC02844 |
| 1.09e5 | 94895 | 82530 | 77845 | 8985 | inactive | CG14095 (GeneID 40112) | DRSC10098 |
| 51315 | 73325 | 58920 | 59225 | 3110 | inactive | P58IPK (GeneID 41161) | DRSC16404 |
| 71690 | 66715 | 1.09e5 | 1.31e5 | 5370 | inactive | FASN2 (GeneID 117361) | DRSC00167 |
| 1.31e5 | 1.65e5 | 1.49e5 | 1.85e5 | 13420 | inactive | FASN2 (GeneID 117361) | DRSC00610 |
| 1.34e5 | 1.49e5 | 2.48e5 | 2.94e5 | 11540 | inactive | CG15375 (GeneID 31356) | DRSC18045 |
| 1.48e5 | 1.27e5 | 1.39e5 | 1.97e5 | 9435 | inactive | SH3PX1 (GeneID 39136) | DRSC11139 |
| 1.04e5 | 1.23e5 | 85485 | 1.10e5 | 11135 | inactive | Su(Tpl) (GeneID 40171) | DRSC10954 |
| 1.92e5 | 1.61e5 | 2.19e5 | 1.98e5 | 13855 | inactive | Strica (GeneID 35528) | DRSC04920 |
| 98680 | 90200 | 1.16e5 | 1.21e5 | 6940 | inactive | Acp53C14c (GeneID 3346203) | DRSC05626 |
| 2.31e5 | 2.78e5 | 3.15e5 | 3.06e5 | 20055 | inactive | CG32440 (GeneID 318030) | DRSC11480 |
| 1.46e5 | 1.70e5 | 82000 | 93455 | 20855 | inactive | CG18662 (GeneID 50437) | DRSC02691 |
| 1.13e5 | 94275 | 1.30e5 | 1.37e5 | 6855 | inactive | ctrip (GeneID 40596) | DRSC12242 |
| 1.29e5 | 1.40e5 | 1.18e5 | 1.19e5 | 8675 | inactive | ctrip (GeneID 40596) | DRSC12287 |
| 1.31e5 | 1.09e5 | 88250 | 89925 | 8742 | inactive | ana2 (GeneID 35878) | DRSC05952 |

Records above whose target name starts with M or m:
| induced reporter light, run 1, well a | induced reporter light, run 1, well b | control promoter light, run 1, well a | control promoter light, run 1, well b | uninduced reporter light, run 1, well a | call | target gene | DRSC id |
| --- | --- | --- | --- | --- | --- | --- | --- |
| 1.73e5 | 1.57e5 | 2.03e5 | 1.85e5 | 12920 | inactive | mRpL42 (GeneID 36050) | DRSC06235 |
| 1.02e5 | 1.01e5 | 60900 | 66110 | 7525 | inactive | Max (GeneID 40095) | DRSC11218 |
